# Experimental data taken from PMC8548325.
# Chains of the proteins cited; added tags and fusions are not shown. Residues count along the entry.
# UniProt Q5ZTK4, residues 231-1190: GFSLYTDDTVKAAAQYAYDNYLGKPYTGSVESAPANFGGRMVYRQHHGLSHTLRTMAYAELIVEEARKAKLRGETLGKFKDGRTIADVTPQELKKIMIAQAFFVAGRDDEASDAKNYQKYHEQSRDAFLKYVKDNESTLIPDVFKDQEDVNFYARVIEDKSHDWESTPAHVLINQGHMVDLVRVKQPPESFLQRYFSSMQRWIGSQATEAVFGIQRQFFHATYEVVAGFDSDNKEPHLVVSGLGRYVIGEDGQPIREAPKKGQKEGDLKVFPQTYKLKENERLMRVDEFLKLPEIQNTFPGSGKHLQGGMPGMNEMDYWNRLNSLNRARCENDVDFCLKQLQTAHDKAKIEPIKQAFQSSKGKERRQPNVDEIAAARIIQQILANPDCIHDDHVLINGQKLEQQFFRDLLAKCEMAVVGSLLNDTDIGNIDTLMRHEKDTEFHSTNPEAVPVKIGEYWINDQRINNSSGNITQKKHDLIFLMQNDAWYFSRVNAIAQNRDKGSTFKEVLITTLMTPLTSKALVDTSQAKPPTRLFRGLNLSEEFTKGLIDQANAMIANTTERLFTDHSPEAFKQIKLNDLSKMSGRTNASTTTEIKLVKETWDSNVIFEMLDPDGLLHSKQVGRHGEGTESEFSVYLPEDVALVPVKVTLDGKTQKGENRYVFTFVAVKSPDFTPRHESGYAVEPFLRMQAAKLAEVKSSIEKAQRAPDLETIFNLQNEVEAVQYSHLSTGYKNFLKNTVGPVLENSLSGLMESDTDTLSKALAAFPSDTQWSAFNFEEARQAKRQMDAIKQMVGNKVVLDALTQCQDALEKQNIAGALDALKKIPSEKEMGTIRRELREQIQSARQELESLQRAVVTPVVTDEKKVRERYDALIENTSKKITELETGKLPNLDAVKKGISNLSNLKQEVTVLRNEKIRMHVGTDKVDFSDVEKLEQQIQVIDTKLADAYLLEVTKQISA
# No constants are given. Whether binding was seen depends on the method and setting.
# Biological target: SdeA (residues 231 to 1190 containing both PDE and mART domains) (Legionella pneumophila) (UniProt Q5ZTK4)
# Assay: SEC; both purified
substance,measurement,value
SdeA (residues 231 to 1190 containing both PDE and mART domains) (from UniProt Q5ZTK4 231-1190) (domain or fragment),binding,no binding (tested: 0.5 mg/mL)
